According to the supplement of paper PMC8256030:
Where “and” joins values, the source holds several entries; their conditions need not be identical. Equal values may be shown once. Some of the results follow. Single values are uncertain here, since repeats match poorly.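 HEK293T cells were given each compound shortly before transfection with a reporter in which red mCherry is followed by the SARS-CoV-2 frameshift element and then GFP in the −1 frame, so GFP appears only after frameshifting.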

The molecules below were run on SARS-CoV-2 -1 PRF reporter mCherry-FSE-GFP(-1) (assay: mCherry (red) intensity as percent of control; higher = higher upstream reporter expression). Conditions: 10 µM; 24 h; HEK293T.

Row | Structure (SMILES) | mCherry
1 | CC[C@H]1OC(=O)[C@H](C)[C@@H](O[C@H]2C[C@@](C)(OC)[C@@H](O)[C@H](C)O2)[C@H](C)[C@@H](O[C@@H]2O[C@H](C)C[C@H](N(C)C)[C@H]2O)[C@](C)(O)C[C@@H](C)[C@@H]2N[C@@H](COCCOC)O[C@H]([C@H]2C)[C@]1(C)O [dirithromycin] | 93% and 103% and 101%
2 | COCCOc1cnc(NS(=O)(=O)c2ccccc2)nc1 [glymidine] | 74.2%
3 | CN1CC[C@H](c2c(O)cc(O)c3c(=O)cc(-c4ccccc4Cl)oc23)[C@H](O)C1 [alvocidib] | 10.5%
4 | CN[C@@H]1[C@H](O)[C@H](NC)[C@H]2O[C@@]3(O)C(=O)C[C@@H](C)O[C@H]3O[C@@H]2[C@H]1O [spectinomycin] | 107%
5 | CCc1nn(CCCN2CCN(c3cccc(Cl)c3)CC2)c(=O)n1CC [etoperidone] | 96.9%
